Test results taken from publication PMC7280309 (Nature Communications, 2020).
Results are given in words; binding and its absence hold for the method and conditions named. Binding seen in cells or lysates may run through a third protein. A yes stands for co-enrichment or nearness to the bait. Other partners may have been found.

The chains behind the UniProt entries cited, without tags or fusion partners.
UniProt Q5ZYC6: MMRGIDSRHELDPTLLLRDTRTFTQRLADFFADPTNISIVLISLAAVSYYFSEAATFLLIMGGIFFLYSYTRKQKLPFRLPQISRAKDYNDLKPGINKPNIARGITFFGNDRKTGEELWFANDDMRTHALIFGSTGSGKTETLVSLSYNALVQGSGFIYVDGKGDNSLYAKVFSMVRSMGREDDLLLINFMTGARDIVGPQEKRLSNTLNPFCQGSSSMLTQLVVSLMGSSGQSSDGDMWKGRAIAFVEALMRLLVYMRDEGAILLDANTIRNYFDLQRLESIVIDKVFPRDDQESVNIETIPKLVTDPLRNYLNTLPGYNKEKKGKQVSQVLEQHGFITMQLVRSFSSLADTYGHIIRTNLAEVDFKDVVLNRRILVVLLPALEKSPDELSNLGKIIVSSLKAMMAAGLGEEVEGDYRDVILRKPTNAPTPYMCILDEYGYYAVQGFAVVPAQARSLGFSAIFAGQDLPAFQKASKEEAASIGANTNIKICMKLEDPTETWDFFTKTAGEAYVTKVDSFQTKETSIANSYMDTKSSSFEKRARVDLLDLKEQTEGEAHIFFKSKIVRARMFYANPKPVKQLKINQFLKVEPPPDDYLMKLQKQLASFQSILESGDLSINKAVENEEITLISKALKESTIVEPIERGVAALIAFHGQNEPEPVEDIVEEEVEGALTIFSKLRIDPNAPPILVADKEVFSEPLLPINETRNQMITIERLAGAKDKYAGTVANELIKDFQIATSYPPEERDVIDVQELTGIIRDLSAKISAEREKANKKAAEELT

Target: DotL with a C-terminal Strep-tag (Legionella pneumophila) (UniProt Q5ZYC6)
Experiment: affinity purification with mass spectrometry

B1: DotY (natural protein)
chain: MPKYTLPTRDALLKAMQVGETSIEAAEYMATRFEQILTKAKLLPECNDMLEKIKEYAQFVKFKLLSSAQVWSGQERPTSDYQNTQENKAEFLASHLEGLPSGLKLEVAIGDDAKILRGFSSNGKMVEGDQLKTMDGLLEGWLAKNSLAISGGAVVKIDNTGNQTKVDPQEIRQLINDSEKGVAKYFADKGVGMEVAQRTYQEPKALETKREEIRQEIESGAEAPTTQSIR
**Q.** Which binding does the source give for B1 here?
**A.** binds
